Measurements reported in publication PMC6970532.
These are yes or no findings as the source states them, for the method shown. In cells and extracts the contact can be indirect. Some results given as binding are weak or reduced against the parent protein; the word gives no strength.

The chains behind the UniProt entries cited, without tags or fusion partners.
UniProt Q9GZV5: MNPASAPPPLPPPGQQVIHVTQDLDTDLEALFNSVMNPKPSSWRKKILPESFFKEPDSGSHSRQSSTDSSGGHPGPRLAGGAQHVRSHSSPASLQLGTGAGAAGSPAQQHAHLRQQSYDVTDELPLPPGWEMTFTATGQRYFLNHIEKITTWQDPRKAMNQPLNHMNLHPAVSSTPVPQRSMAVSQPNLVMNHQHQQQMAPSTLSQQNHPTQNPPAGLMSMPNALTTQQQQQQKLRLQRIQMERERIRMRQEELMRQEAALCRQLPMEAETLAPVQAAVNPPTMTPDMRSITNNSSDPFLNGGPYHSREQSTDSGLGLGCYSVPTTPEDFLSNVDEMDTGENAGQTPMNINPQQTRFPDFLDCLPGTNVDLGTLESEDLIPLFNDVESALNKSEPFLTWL
UniProt P46937: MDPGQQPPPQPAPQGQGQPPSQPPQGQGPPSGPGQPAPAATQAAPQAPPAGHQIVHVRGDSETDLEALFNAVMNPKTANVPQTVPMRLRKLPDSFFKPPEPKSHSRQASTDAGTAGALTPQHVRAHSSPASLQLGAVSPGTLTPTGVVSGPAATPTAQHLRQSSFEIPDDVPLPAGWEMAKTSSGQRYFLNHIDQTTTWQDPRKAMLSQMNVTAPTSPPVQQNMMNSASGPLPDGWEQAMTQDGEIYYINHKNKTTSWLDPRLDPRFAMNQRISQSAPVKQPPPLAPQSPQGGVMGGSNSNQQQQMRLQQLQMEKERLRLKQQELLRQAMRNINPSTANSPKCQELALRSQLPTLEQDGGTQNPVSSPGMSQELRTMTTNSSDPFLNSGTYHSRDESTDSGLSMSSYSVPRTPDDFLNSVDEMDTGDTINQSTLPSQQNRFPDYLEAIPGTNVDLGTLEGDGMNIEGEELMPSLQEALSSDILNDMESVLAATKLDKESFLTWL
UniProt Q16665: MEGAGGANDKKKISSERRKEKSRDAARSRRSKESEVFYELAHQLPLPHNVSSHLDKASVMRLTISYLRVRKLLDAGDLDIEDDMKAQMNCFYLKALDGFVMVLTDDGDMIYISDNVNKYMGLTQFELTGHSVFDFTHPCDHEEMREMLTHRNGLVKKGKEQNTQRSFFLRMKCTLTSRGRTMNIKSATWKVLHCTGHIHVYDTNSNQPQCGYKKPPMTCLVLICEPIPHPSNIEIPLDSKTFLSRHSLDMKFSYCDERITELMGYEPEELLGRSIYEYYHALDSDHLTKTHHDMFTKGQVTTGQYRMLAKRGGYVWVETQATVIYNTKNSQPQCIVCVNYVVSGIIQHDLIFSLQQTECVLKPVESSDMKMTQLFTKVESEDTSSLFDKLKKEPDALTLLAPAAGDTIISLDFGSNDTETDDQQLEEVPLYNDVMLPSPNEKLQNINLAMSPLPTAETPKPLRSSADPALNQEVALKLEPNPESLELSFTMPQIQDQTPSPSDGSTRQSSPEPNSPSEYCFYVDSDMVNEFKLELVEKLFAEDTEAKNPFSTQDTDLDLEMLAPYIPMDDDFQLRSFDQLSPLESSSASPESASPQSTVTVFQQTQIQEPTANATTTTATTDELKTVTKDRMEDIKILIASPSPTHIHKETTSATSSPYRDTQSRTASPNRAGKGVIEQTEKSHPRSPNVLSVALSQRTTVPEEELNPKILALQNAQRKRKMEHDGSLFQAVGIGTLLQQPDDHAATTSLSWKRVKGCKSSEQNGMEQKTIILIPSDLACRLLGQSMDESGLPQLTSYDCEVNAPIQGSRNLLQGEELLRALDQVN

Tests used:
[1] = biological target: WW domain containing transcription regulator 1 (human (endogenous in HUVEC)) (UniProt Q9GZV5); experiment: co-IP; immunoprecipitation of Yap1/Taz from HUVEC RIPA lysates (hypoxic conditions), Dynabeads protein-G, 4°C, five washes with lysis buffer without SDS and deoxycholate; immunoblotting of HIF1α and Yap1/Taz; IgG as negative control
[2] = biological target: Yes-associated protein 1 (human (endogenous in HUVEC)) (UniProt P46937); experiment: as above

binding [1]: binds
binding [2]: binds
Substance: hypoxia-inducible factor 1α (from UniProt Q16665 1-826)
